Experimental findings from publication PMC5577446 are described below.

These are yes or no findings as the source states them, for the method shown. Binding seen in cells or lysates may run through a third protein.

The assay addresses endogenous TACC3 in TERT-B cells (human (endogenous in TERT-B)) (UniProt Q9Y6A5). In words: co-IP; 1 mg whole-cell extract (RT112 asynchronous or synchronized in mitosis by thymidine/nocodazole; TERT-B asynchronous), lysis in 20 mM Tris–Cl pH 7.5, 137 mM NaCl, 1% NP-40; precipitated with 10 µg agarose-conjugated anti-TACC3 (N-terminus, sc22773), 4°C, 2 h; blots with anti-FGFR3 and anti-TACC3.

Consider “FGFR3 (fibroblast growth factor receptor 3) endogenous in TERT-B cells (from UniProt P22607 23-806)”, for which the binding entry is given as “no binding”.
